In PubChem BioAssay AID504444 (National Center for Advancing Translational Sciences (NCATS), 2011):
Among all 360,000 compounds or so, about 7,500 (2.1%) were called active. The inconclusive results got no clear call from the source; some entries with a clear call stand among them for comparison. The call rests on the fitted dose curve; in most records, active means well fitted inhibition curve with a large enough effect; inconclusive means small, poorly fitted or top-dose-only effect, or effect the other way; inactive means flat fitted curve, though single readings scatter. Potencies beside an inconclusive call are fits to weak or partial responses and may not hold up.

experiment: Nrf2 qHTS screen for inhibitors; conditions: A549 ARE-Fluc reporter, luciferase luminescence, 18-24 h; series mostly up to 46 µM; further: nearly all actives have a fitted effect of over 60% in size
Outline: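 Two sequential reads on A549 ARE_Fluc cells exposed to compound for 18-24 h: a CellTiter-Fluor fluorescence read for viability, then a luciferase luminescence read for Nrf2/ARE activity.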
Potency means the concentration at half of the fitted maximal effect.

Row | Structure (SMILES) | Potency
1 | COCCC1CCCCN1C(=O)c1cccc(OC2CCN(S(C)(=O)=O)CC2)c1 (stereo not given) | inactive
2 | C=CCNc1nc(-c2sc(NC(=O)CC)nc2C)cs1 | inconclusive: 23.1 µM [activator, single point]
3 | COc1ccc(C2CC(=O)N3CN(Cc4ccco4)CSC3=C2C#N)cc1 (stereo not given) | inactive
4 | O=C(CSc1nc2nn(-c3ccccc3)c(=O)c-2c2n1CCCCC2)Nc1cccc(F)c1 | active: 9.2 µM
5 | O=C1CCCCC1Nc1ccc2ccccc2c1 (stereo not given) | active: 18.4 µM
6 | CCc1ccc2oc(-c3ccc(NC(=O)c4cccc(Cl)c4Cl)cc3)nc2c1 | active: 8.2 µM
7 | CC/C(=N/Nc1ccc(Cl)cc1)c1cnnc(SC)n1 | inactive
8 | O=C1c2ccccc2CCCC12N=NCC2c1cccc2ccccc12 (stereo not given) | active: 16.4 µM
9 | CN(C(=O)C12CC3CC(CC(C3)C1)C2)C1(C)CCS(=O)(=O)C1 (stereo not given) | inconclusive: 23.1 µM [activator, partial curve]
10 | OCc1nc2ccccc2n1Cc1ccc(Cl)cc1 | inactive
11 | CCOc1ccc(CNC(=O)C2CCCN(c3nn4cc(-c5ccc(F)cc5)nc4s3)C2)cc1 (stereo not given) | inconclusive: 4.11 µM [activator, partial curve]
12 | CC(C)c1cccc(C(C)C)c1NC(=O)CN1C(=O)NC2(CCCCCCC2)C1=O | inactive
13 | Cc1cc(OCCN2CCOCC2)ccc1[N+](=O)[O-] | inconclusive: 1.46 µM [activator, full curve]
14 | COC(=O)C1NN=C(C(=O)c2ccc(Br)cc2)C1c1cccc(Br)c1 (stereo not given) | inconclusive: 20.6 µM [falling, single point]
15 | O=C(NCc1ccccc1)C1=C[C@H](c2csc3ccccc23)C[C@H](OCCCCO)O1 | inconclusive: 29.1 µM [falling, single point]
16 | O=C(/C=C/c1ccc([N+](=O)[O-])cc1)NCCSc1ccccc1 | inconclusive: 10.3 µM [falling, partial curve, poor fit]
17 | COc1cc(NC(=O)CNc2ccc(Cl)c(S(=O)(=O)N3CCOCC3)c2)cc(OC)c1 | inconclusive: 18.4 µM [falling, single point]
18 | COc1ccc(OC)c(NC(=O)Nc2ccc3c(c2)OCO3)c1 | inactive
19 | CC(Oc1ccccc1)C(=O)Nc1nc(-c2ccccn2)cs1 (stereo not given) | inconclusive: 29.1 µM [falling, single point]
20 | O=C(Cn1cc(C(=O)c2cccs2)c2ccccc21)NCc1cccs1 | inconclusive: 16.4 µM [activator, partial curve, poor fit]
21 | Cc1ccc(NC(=O)C(C)Sc2nc3c(c(=O)[nH]2)CCCC3)cc1Cl (stereo not given) | inactive
22 | COc1ccccc1C(=O)NCC(=O)OCc1csc(-c2ccccc2)n1 | inconclusive: 14.6 µM [activator, partial curve, poor fit]
23 | Cc1cccc(OCc2nc(C#N)c(N3CCCC3)o2)c1 | inconclusive: 29.1 µM [falling, single point]
24 | COc1ccc(Nc2nc(-c3cccs3)nc3ccccc23)cc1 | inconclusive: 29.1 µM [falling, single point]

Row | Structure (SMILES) | Potency
25 | Cc1ccccc1C(=O)N1CCN=C1SCc1ccc([N+](=O)[O-])cc1 | inconclusive: 3.26 µM [falling, partial curve, poor fit]
26 | CCOc1ccc(NC(=O)COc2nsnc2N2CCCCC2)cc1 | inconclusive: 18.4 µM [falling, single point]
27 | CCN1CCN(C(=O)C(N)Cc2ccccc2)CC1 (stereo not given) | inconclusive: 6.51 µM [falling, single point]
28 | CCn1c(SCC(=O)Nc2cc(C)on2)nc2c([nH]c3ccccc32)c1=O | inconclusive: 11.6 µM [falling, partial curve]
29 | CCCCNS(=O)(=O)c1ccc(S(=O)(=O)NCc2ccncc2)cc1 | active: 7.31 µM
30 | COc1cc(C(=O)Nc2cc(-c3ccccc3)[nH]n2)cc(OC)c1OC | inconclusive: 20.6 µM [falling, single point]
31 | Cc1cc(C(=O)c2ccccc2)cc(C)c1O | inactive
32 | Cc1ccc2c(c1)N(C(=O)CCC(=O)NCc1cccs1)CC(C)O2 (stereo not given) | inactive
33 | CCOC(=O)NC1(NCC(C)C)Oc2ccccc2O1 | inconclusive: 23.1 µM [activator, single point]
34 | Cc1onc(-c2ccccc2Cl)c1C(=O)OCC(=O)N1CCN(c2ccccc2)CC1 | inactive
35 | COc1cc(C(=O)OC2CSCC2NC(=O)c2ccccc2)cc(OC)c1OC (stereo not given) | inactive
36 | Cc1cc(C)cc(C(=O)O/N=C(\N)c2ccc(Br)cc2)c1 | inconclusive: 0.092 µM [activator, partial curve, poor fit]
37 | COc1cccc(N=c2oc3ccc(OC)cc3cc2-c2nc3ccccc3[nH]2)c1 | inconclusive: 3.66 µM [falling, partial curve, poor fit]
38 | O=C(CN1CCN(Cc2ccccc2)CC1)N/N=C/c1cccnc1 | inconclusive: 29.1 µM [falling, single point]
39 | O=C(Nc1ccccc1)N1CCN(c2nc(-c3ccccc3)ns2)CC1 | active: 23.1 µM
40 | CC1=C(N2CCCCC2)CCC1=O | inactive
41 | Cc1ccc(NC(=O)c2sc3ccccc3c2Cl)nc1 | inconclusive: 0.651 µM [activator, full curve]
42 | CN(C)c1nc(N)c([N+](=O)[O-])c(N2CCCCCC2)n1 | inconclusive: 16.4 µM [falling, single point]
43 | CC(=O)c1c(C)[nH]c(C(=O)COC(=O)c2cccs2)c1C | inactive
44 | COc1ccc(C2Oc3ccccc3C(=O)N2Cc2ccccc2)cc1COc1ccc(NC(C)=O)cc1 (stereo not given) | inconclusive: 18.4 µM [falling, single point]
45 | CCOc1cccc(C(=O)N(Cc2ccc(F)cc2)Cc2ccco2)c1 | inconclusive: 23.1 µM [falling, partial curve, poor fit]
46 | COc1ccc(-c2ccc(N(C)C)cc2)cc1[C@H]1[C@@H]2C=CCC[C@@]2(C)C(=O)N1Cc1ccccc1 | inconclusive: 18.4 µM [falling, single point]
47 | COc1ccc(-n2c(Cc3cccn3C)nnc2SCC(=O)Nc2ccccc2OC)cc1 | inconclusive: 0.82 µM [falling, full curve, poor fit]
48 | Cc1ccc(N2C(=O)CS(=O)(=O)C23C(=O)N(Cc2ccc(Cl)cc2)c2ccccc23)cc1C (stereo not given) | inconclusive: 16.4 µM [falling, single point]

Row | Structure (SMILES) | Potency
49 | COCCn1c(SCC(=O)c2ccc(F)cc2)nc2cc(C(=O)NC3CCCC3)ccc2c1=O | inconclusive: 18.4 µM [activator, partial curve, poor fit]
50 | COc1ccc(Cl)cc1NC(=O)C1CCN(S(=O)(=O)c2ccc(F)cc2)CC1 | inconclusive: 25.9 µM [falling, single point]
51 | O=c1c2c([N+](=O)[O-])cc([N+](=O)[O-])cc2nc2ccccn12 | inactive
52 | COc1ccccc1OCc1nc2ccccc2n1C | inconclusive: 7.31 µM [activator, partial curve]
53 | COc1ccc(S(=O)(=O)N2CCN(Cc3cc4c(cc3Br)OCCO4)CC2)cc1 | inconclusive: 29.1 µM [falling, partial curve, poor fit]
54 | COc1ccc(N2CCN(S(=O)(=O)c3ccc4c(c3)NC(=O)C(C)S4)CC2)cc1 (stereo not given) | inactive
55 | O=C(Nc1ccc2oc(-c3ccc4ccccc4c3)nc2c1)c1cc(Cl)ccc1Cl | inactive
56 | COc1ccc(-c2c(C(C)=O)c(C)nc3sc4c(=O)n(-c5ccc(C)cc5)nnc4c23)cc1 | inconclusive: 7.31 µM [falling, partial curve, poor fit]
57 | O=C(CNc1ccccc1Cl)Nc1cc(S(=O)(=O)N2CCOCC2)ccc1Cl | inconclusive: 32.6 µM [falling, partial curve, poor fit]
58 | O=C(O)CC(NC(=O)C1c2ccccc2Oc2ccccc21)c1ccc(Cl)cc1 (stereo not given) | inconclusive: 0.103 µM [falling, full curve, poor fit]
59 | Clc1ccc(/C=C/c2nc3ccccc3[nH]2)c(Cl)c1 | inconclusive: 13 µM [falling, single point]
60 | O=C(CNC(=O)c1ccc(Br)cc1)c1ccccc1 | inconclusive: 8.2 µM [activator, partial curve]
61 | COc1ccc(Cc2nnc(NC(=O)c3ccccc3[N+](=O)[O-])s2)cc1 | inactive
62 | O=C(CCCN1C(=O)c2cccc3cccc(c23)C1=O)NCc1cccs1 | inconclusive: 8.2 µM [falling, partial curve, poor fit]
63 | CCc1ccc(N/C(SCc2ccccc2C)=C(/C#N)C(=O)NCc2ccco2)cc1 | inconclusive: 14.6 µM [falling, partial curve, poor fit]
64 | Cc1cccc(Nc2nc3c(S(=O)(=O)c4ccc(Br)cc4)nnn3c3ccsc23)c1C | inactive
65 | O=C(O)c1ccc(CSc2nc(-c3ccc(Cl)cc3)cc(C(F)(F)F)n2)cc1 | inconclusive: 29.1 µM [falling, single point]
66 | COc1cccc(-c2nc3c(C#N)c[nH]n3c2NC2CCC(C)CC2)c1 (stereo not given) | inconclusive: 23.1 µM [falling, single point]
67 | CC(=O)Nc1nc(-c2ccc3c(c2)CCN3S(C)(=O)=O)cs1 | inactive
68 | COc1cc(-c2noc(C3CCCN(S(=O)(=O)c4cccc(Cl)c4)C3)n2)cc(OC)c1OC (stereo not given) | inconclusive: 18.4 µM [falling, partial curve, poor fit]
69 | c1ccc(-c2cnc(-c3cccnc3)o2)cc1 | inconclusive: 14.6 µM [activator, partial curve]
70 | CCOc1cc(C(=O)OC(C)C(=O)Nc2ccccc2OC)ccc1OCC(=O)N1CCOCC1 (stereo not given) | inconclusive: 7.31 µM [falling, partial curve, poor fit]

Of the compounds above, 3 have a furan ring, fused or not:
Row | Structure (SMILES) | Potency
3 | COc1ccc(C2CC(=O)N3CN(Cc4ccco4)CSC3=C2C#N)cc1 (stereo not given) | inactive
45 | CCOc1cccc(C(=O)N(Cc2ccc(F)cc2)Cc2ccco2)c1 | inconclusive: 23.1 µM [falling, partial curve, poor fit]
63 | CCc1ccc(N/C(SCc2ccccc2C)=C(/C#N)C(=O)NCc2ccco2)cc1 | inconclusive: 14.6 µM [falling, partial curve, poor fit]
